Experimental data published in PubChem BioAssay AID493014 (National Center for Advancing Translational Sciences (NCATS), 2011).
Screen size: about 340,000 compounds; about 170 (0.05%) were called active. The inconclusive results got no clear call from the source; some entries with a clear call stand among them for comparison. Calls come from the whole dose curve; as a rule, active = well fitted inhibition curve with a large enough effect in the signal ratio, with a control signal flat (not every such curve was filed as active); inconclusive = small, poorly fitted or top-dose-only effect, or effect the other way, or a change in a side signal; inactive = flat fitted curve, though single readings scatter; the % refers to the signal ratio. Where the call is inconclusive, the potency comes from a doubtful curve fit.

Test: qHTS Assay to Find Inhibitors of Chronic Active B-Cell Receptor Signaling;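 for activity change, negative = inhibition: plate controls were basal doxycycline-induced cells for no effect and cells given 10 µM MG132 for full effect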
Settings: ABC-DLBCL IkBa-CBG/CBR reporter, luminescence ratio (green luciferase fused to IkBa over red control in TMD8 lymphoma cells), 4 h; activity change, negative = inhibition: at 46.1 µM (top of the series)
How it was run: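 TMD8 human ABC-DLBCL cells with doxycycline-inducible IκBα–green luciferase fusion and unfused red luciferase, in 0.5% FBS medium; compounds up to 46 uM, 4 h at 37C. Green/red luminescence ratio, filter-overlap corrected, fitted to concentration-response curves.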
Potency is the fitted concentration of half-maximal effect.

Question: With `O=C(Nc1nc2c(Br)cccc2s1)C1CC1` as the molecule, how does the Potency read?
Answer: inconclusive: 0.708 µM [rising, full curve, poor fit]

Question: Which “activity change, negative = inhibition” value does the source give for `COCCN1Cc2cc3cc(C)ccc3nc2SC1=Nc1cccc(OC)c1` here?
Answer: inactive: 6.95%

Question: Which activity change, negative = inhibition does the source give for `COc1cccc(NC(=O)COC(=O)C2CC(=O)N(c3ccc(C)cc3)C2)c1` (stereo not drawn) here?
Answer: inconclusive: -1.04%

Question: Which activity change, negative = inhibition does the source give for `COc1ccc([C@H]2CC(=O)C=C(c3cccc4c3Oc3ccccc3S4)C2)cc1OC` here?
Answer: inconclusive: 21.4%

Question: For `O=C(NC1CC1)C1=C[C@H](c2csc3ccccc23)C[C@H](OCc2ccc(CO)cc2)O1`, which Potency is on record?
Answer: inconclusive: 17.8 µM [falling, partial curve, poor fit]

Question: With `CCOC(=O)CNC(=O)c1ccc(OCC(F)(F)F)cc1` as the molecule, how does the activity change, negative = inhibition read?
Answer: inconclusive: -2.79%

Question: For `O=C(Nc1ccc2nc(-c3ccccc3)[nH]c2c1)c1cccs1`, which Potency is on record?
Answer: inconclusive: 2.31 µM [rising, partial curve, poor fit]

Question: With `COC(=O)c1cc(OC)c(OC)cc1NC(=O)c1ccc(OC)cc1` as the molecule, how does the activity change, negative = inhibition read?
Answer: inconclusive: -5.56%

Question: For `COCCn1c(Cc2ccccc2)nnc1SCC(=O)N1CCCC1=O`, which “activity change, negative = inhibition” value is on record?
Answer: inactive: 1.03%

Question: Which activity change, negative = inhibition does the source give for `Nc1nc(SCC(=O)N2CCCc3ccccc32)n(-c2ccccc2)n1` here?
Answer: inconclusive: 5.27%

Question: With `COc1ccc(NC(=S)Nc2ccccc2)cc1` as the molecule, how does the activity change, negative = inhibition read?
Answer: inconclusive: -7.12%

Question: For `Nc1cc(N2CCCCC2)c([N+](=O)[O-])cc1Cl`, which activity change, negative = inhibition is on record?
Answer: inconclusive: 0.0923%

Question: Which activity change, negative = inhibition does the source give for `O=C(CSCc1c(Cl)cccc1Cl)Nc1ccc2c(c1)OCCO2` here?
Answer: inconclusive: -17.7%

Question: With `OC(c1ccccc1)(c1ccc(F)cc1)C(c1ccccc1)N1CCOCC1` (stereo not drawn) as the molecule, how does the activity change, negative = inhibition read?
Answer: inconclusive: 27.8%

Question: Which “activity change, negative = inhibition” value does the source give for `Cc1ccccc1-c1nnc(-c2cccs2)o1` here?
Answer: inactive: -7.85%

Question: For `Cc1ccc2oc(=O)n(CCOc3ccccc3Cl)c2c1`, which “activity change, negative = inhibition” value is on record?
Answer: inactive: -11%

Question: Which Potency does the source give for `CNc1sc(C(=O)c2ccccc2F)c(N)c1-c1nc2ccccc2s1` here?
Answer: inconclusive: 29.1 µM [falling, single point]

Question: Which “activity change, negative = inhibition” value does the source give for `CCN(CC(=O)Nc1ccccc1C(F)(F)F)C(=O)CCOc1ccccc1C` here?
Answer: inactive: 1.18%

Question: Which Potency does the source give for `COc1cc(N=Nc2c(C)n(C)n(-c3ccccc3)c2=O)ccc1N` here?
Answer: inconclusive: 12.6 µM [falling, partial curve]

Question: Which “activity change, negative = inhibition” value does the source give for `CCc1ccc(S(=O)(=O)N2CCN(C(=O)C3CCN(C(C)=O)CC3)CC2)cc1` here?
Answer: inactive: -1.44%

Question: For `N#CC1=C(N)N2C(=C(C#N)C1c1ccccc1)Sc1ccccc12` (stereo not drawn), which activity change, negative = inhibition is on record?
Answer: inconclusive: 9.47%

Question: For `CC1CCCC(C)N1CC(O)COCc1ccccc1F` (stereo not drawn), which activity change, negative = inhibition is on record?
Answer: inconclusive: -2.13%

Question: With `CC(C)c1ccc(NC(=O)c2sccc2-n2cccc2)cc1` as the molecule, how does the activity change, negative = inhibition read?
Answer: inconclusive: 21.9%

Question: With `CC(C)CN(C(=O)COC(=O)c1ccc(Cl)c(N)c1)c1c(N)n(Cc2ccccc2)c(=O)[nH]c1=O` as the molecule, how does the “activity change, negative = inhibition” value read?
Answer: inactive: 7.64%

Question: Which activity change, negative = inhibition does the source give for `CCCc1nnc(NC(=O)C(CC)OC(=O)c2cc(C)nc3ccccc23)s1` (stereo not drawn) here?
Answer: inconclusive: -11.5%

Question: With `Cc1nn(-c2ncc(C(F)(F)F)cc2Cl)c(=O)n1-c1c(F)cccc1F` as the molecule, how does the activity change, negative = inhibition read?
Answer: inconclusive: 1.3%

Question: For `CC(C)(C)OC(=O)CNC(=O)c1[nH]cnc1C(=O)NCCCCCNC(=O)OC(C)(C)C`, which Potency is on record?
Answer: inconclusive: 25.1 µM [falling, single point]

Question: With `CC(C)CCn1c(SCc2cccc(F)c2)nc2ccsc2c1=O` as the molecule, how does the activity change, negative = inhibition read?
Answer: inconclusive: 25.5%

Question: With `Cc1nc(SCc2ccc(Cl)cc2)ncc1C(=O)O` as the molecule, how does the Potency read?
Answer: inconclusive: 31.6 µM [falling, partial curve]

Question: Which activity change, negative = inhibition does the source give for `COc1cccc(NC(=O)CN2C(=O)COc3ccc(S(=O)(=O)N4CCC(C)CC4)cc32)c1` here?
Answer: inconclusive: -0.313%

Question: For `Cc1ccccc1OCCNC(=O)/C=C/c1ccccc1`, which activity change, negative = inhibition is on record?
Answer: inconclusive: 3.37%

Question: With `CC(=O)c1cccc(NC(=O)CN2C(=O)NC3(CCCCCCC3)C2=O)c1` as the molecule, how does the “activity change, negative = inhibition” value read?
Answer: inactive: -6.25%

Question: For `COc1ccc(C(=O)NC(=S)Nc2ccccc2N2CCOCC2)cc1[N+](=O)[O-]`, which activity change, negative = inhibition is on record?
Answer: inconclusive: -0.385%

Question: For `CCOc1cc(/C=C2\CN(CC)C/C(=C\c3ccc(O)c(OCC)c3)C2=O)ccc1O`, which Potency is on record?
Answer: inconclusive: 4.47 µM [falling, full curve]

Question: For `CCCCNc1c(-c2ccc(-c3ccc(C(C)=O)cc3)c(OC)c2)nc2cc(C)ccn12`, which “activity change, negative = inhibition” value is on record?
Answer: inactive: -2.59%

Question: With `Cc1ccc(N2CC(C(=O)NCc3ccco3)CC2=O)cc1Cl` (stereo not drawn) as the molecule, how does the activity change, negative = inhibition read?
Answer: inconclusive: -16%

Question: Which Potency does the source give for `CNS(=O)(=O)c1cc(-c2nnc(Nc3ccc(CC(N)=O)cc3)c3ccccc23)ccc1C` here?
Answer: inconclusive: 25.1 µM [falling, single point]

Question: For `CCOC(=O)c1ccc(NC(=O)N2CCN(Cc3ccccc3)CC2)cc1`, which activity change, negative = inhibition is on record?
Answer: inconclusive: 3.84%

Question: For `COc1ccccc1CN(C)C(=O)C(c1ccccc1)c1ccccc1`, which activity change, negative = inhibition is on record?
Answer: inconclusive: -4.89%

Question: Which “activity change, negative = inhibition” value does the source give for `CCc1cccc(C)c1NC(=O)COC(=O)CSCc1ccccc1` here?
Answer: inactive: 0.451%

Question: Which “activity change, negative = inhibition” value does the source give for `O=C(NCC(=O)N1CCN(S(=O)(=O)c2ccccc2)CC1)c1ccc(Br)o1` here?
Answer: inactive: -1.73%

Question: Which activity change, negative = inhibition does the source give for `O=C(CCl)N(c1ccccc1)C1CCS(=O)(=O)C1` (stereo not drawn) here?
Answer: inconclusive: -14.9%

Question: Which activity change, negative = inhibition does the source give for `COC(=O)c1sc(-c2ccc(C(C)(C)C)cc2)cc1NC(=O)c1ccccc1C(=O)O` here?
Answer: inconclusive: 1.05%

Question: For `CCCc1cnc2c(c1SCc1cccc(F)c1)c(=O)n(C)c(=O)n2C`, which “activity change, negative = inhibition” value is on record?
Answer: inactive: 2.51%

Question: With `CC(O)[C@H]1CNC(=S)N1CCc1cccc(F)c1` (stereo partly drawn) as the molecule, how does the activity change, negative = inhibition read?
Answer: inconclusive: 4.62%

Question: Which activity change, negative = inhibition does the source give for `COc1ccc2sc3ccccc3c(=O)c2c1OC` here?
Answer: inconclusive: -1.51%

Question: For `CC1CCCC(NC(=O)CCCn2c(=O)[nH]c3cc(Cl)ccc3c2=O)C1C` (stereo not drawn), which Potency is on record?
Answer: inconclusive: 29.1 µM [falling, single point]

Question: With `O=[N+]([O-])c1ccc(Oc2ccc(OCc3ccccc3)cc2)nc1` as the molecule, how does the activity change, negative = inhibition read?
Answer: inconclusive: -0.178%

Question: Which Potency does the source give for `COc1cccc(C(=O)OCC(=O)Nc2nnc(-c3ccccc3)o2)c1` here?
Answer: inconclusive: 25.9 µM [falling, partial curve]

Question: Which Potency does the source give for `Cc1ccc(Nc2nnc(SCC(=O)Nc3cccc(S(=O)(=O)N4CCCCC4)c3)s2)cc1` here?
Answer: inconclusive: 2.31 µM [falling, full curve]

Question: For `COc1ccc(C(=O)Nc2sc3c(c2C(=O)O)CC(C)(C)OC3)cc1`, which activity change, negative = inhibition is on record?
Answer: inconclusive: -8.51%

Question: For `COc1ccc(C(=S)N2CCCC2)cc1Br`, which activity change, negative = inhibition is on record?
Answer: inconclusive: 1.74%

Question: Which “activity change, negative = inhibition” value does the source give for `FC(F)(F)c1cccc(N2CCN(CC3CC4C=CC3C4)CC2)c1` (stereo not drawn) here?
Answer: inactive: 10.8%
